{"source": "patent US7935806B2", "about": "“Method for performing in vitro diagnosis using gene regulation mechanisms and corresponding diagnosis kit” (Unisensor S.A., priority 2001, dated 2011)", "format_in_all_cases": "binding, E. Coli C600", "key": {"tetR of class C [1]": {"target": "T1, tetR of class C (Escherichia coli, UniProt P03039)", "T1 construct": "two primers have been selected for amplification by PCR of the gene which has then been cloned in a pet12a-expression plasmid; made in house; host or cells: E. coli HB101 carrying pT7po123; expression plasmid pet12a", "conditions": "25 ppb in honey, read with the naked eye"}, "tetR of class C [2]": {"target": "T1, tetR of class C"}, "[3]": {"target": "T2, tetR receptor-DNA complex (Escherichia coli, UniProt P03039)", "T2 construct": "two primers have been selected for amplification by PCR of the gene which has then been cloned in a pet12a-expression plasmid; made in house; host or cells: E. coli HB101 carrying pT7po123; expression plasmid pet12a", "T2 sequence (P03039 1-219)": "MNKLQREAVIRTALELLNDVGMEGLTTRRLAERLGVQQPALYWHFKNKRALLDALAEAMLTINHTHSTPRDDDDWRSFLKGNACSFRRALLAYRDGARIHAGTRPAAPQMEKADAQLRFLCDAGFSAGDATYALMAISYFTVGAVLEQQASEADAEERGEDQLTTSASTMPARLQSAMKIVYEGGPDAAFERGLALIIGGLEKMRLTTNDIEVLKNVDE", "test": "Surface Plasmon Resonance detection of the tetR receptor-DNA complex", "conditions": "concentration equivalent to 60 ppb in the analysis solution"}, "tetR of class C [4]": {"target": "T1, tetR of class C", "conditions": "chicken muscle, in less than 15 minutes"}}, "note": "Read-outs that look alike come from different tables or passages of the source. At least one structure is not confirmed: it was looked up by name or label, or the drawing left a doubt. Some entries repeat one wording, which the source may state once for all of them.", "data": [{"smiles": "CN(C)[C@@H]1C(O)=C(C(N)=O)C(=O)[C@@]2(O)C(O)=C3C(=O)c4c(O)ccc(Cl)c4[C@@](C)(O)[C@H]3C[C@@H]12", "note": "[chlortetracycline]", "values": [{"measurement": "test result (test signal lower than control signal = positive)", "setting": "tetR of class C [1]", "value": "positive result"}]}, {"smiles": "C[C@H]1c2cccc(O)c2C(=O)C2=C(O)[C@]3(O)C(=O)C(C(N)=O)=C(O)[C@@H](N(C)C)[C@@H]3[C@@H](O)[C@@H]21", "note": "[doxycycline]", "values": [{"measurement": "test result (test signal lower than control signal = positive)", "setting": "tetR of class C [1]", "value": "positive result"}]}, {"smiles": "C=C1c2cccc(O)c2C(=O)C2=C(O)[C@]3(O)C(=O)C(C(N)=O)=C(O)[C@@H](N(C)C)[C@@H]3[C@@H](O)[C@H]12", "note": "[methacycline]", "values": [{"measurement": "test result (test signal lower than control signal = positive)", "setting": "tetR of class C [1]", "value": "positive result"}]}, {"smiles": "CN(C)[C@@H]1C(O)=C(C(N)=O)C(=O)[C@@]2(O)C(O)=C3C(=O)c4c(O)cccc4[C@@](C)(O)[C@H]3[C@H](O)[C@@H]12", "note": "[oxytetracycline]", "values": [{"measurement": "test result (test signal lower than control signal = positive)", "setting": "tetR of class C [1]", "value": "positive result"}]}, {"smiles": "CN(C)[C@@H]1C(O)=C(C(=O)NCN2CCCC2)C(=O)[C@@]2(O)C(O)=C3C(=O)c4c(O)cccc4[C@@](C)(O)[C@H]3C[C@@H]12", "note": "[rolitetracycline]", "values": [{"measurement": "test result (test signal lower than control signal = positive)", "setting": "tetR of class C [1]", "value": "positive result"}]}, {"smiles": "CN(C)[C@@H]1C(O)=C(C(N)=O)C(=O)[C@@]2(O)C(O)=C3C(=O)c4c(O)cccc4[C@@](C)(O)[C@H]3C[C@@H]12", "note": "[tetracycline]", "values": [{"measurement": "Control Line intensity", "setting": "tetR of class C [2]; 10 ppb in milk", "value": "1,373"}, {"measurement": "Test Line intensity", "setting": "tetR of class C [2]; 10 ppb in milk", "value": "4,357"}, {"measurement": "Control Line intensity", "setting": "tetR of class C [2]; 20 ppb in milk", "value": "1,787"}, {"measurement": "Test Line intensity", "setting": "tetR of class C [2]; 20 ppb in milk", "value": "3,620"}, {"measurement": "Control Line intensity", "setting": "tetR of class C [2]; 30 ppb in milk", "value": "1,921"}, {"measurement": "Test Line intensity", "setting": "tetR of class C [2]; 30 ppb in milk", "value": "3,041"}, {"measurement": "Control Line intensity", "setting": "tetR of class C [2]; 40 ppb in milk", "value": "2,080"}, {"measurement": "Test Line intensity", "setting": "tetR of class C [2]; 40 ppb in milk", "value": "2,273"}, {"measurement": "Control Line intensity", "setting": "tetR of class C [2]; 50 ppb in milk", "value": "2,402"}, {"measurement": "Test Line intensity", "setting": "tetR of class C [2]; 50 ppb in milk", "value": "2,023"}, {"measurement": "test result (test signal below control signal = positive)", "setting": "tetR of class C [2]; 50 ppb in milk", "value": "positive result"}, {"measurement": "Control Line intensity", "setting": "tetR of class C [2]; 60 ppb in milk", "value": "2,414"}, {"measurement": "Test Line intensity", "setting": "tetR of class C [2]; 60 ppb in milk", "value": "1,096"}, {"measurement": "Control Line intensity", "setting": "tetR of class C [2]; 70 ppb in milk", "value": "2,189"}, {"measurement": "Test Line intensity", "setting": "tetR of class C [2]; 70 ppb in milk", "value": 985}, {"measurement": "Control Line intensity", "setting": "tetR of class C [2]; 80 ppb in milk", "value": "2,367"}, {"measurement": "Test Line intensity", "setting": "tetR of class C [2]; 80 ppb in milk", "value": 630}, {"measurement": "Control Line intensity", "setting": "tetR of class C [2]; 90 ppb in milk", "value": "2,190"}, {"measurement": "Test Line intensity", "setting": "tetR of class C [2]; 90 ppb in milk", "value": 377}, {"measurement": "Control Line intensity", "setting": "tetR of class C [2]; 100 ppb in milk", "value": "2,123"}, {"measurement": "Test Line intensity", "setting": "tetR of class C [2]; 100 ppb in milk", "value": 399}, {"measurement": "test result (test signal lower than control signal = positive)", "setting": "tetR of class C [1]", "value": "positive result"}, {"measurement": "formation of the receptor-DNA complex (SPR)", "setting": "[3]", "value": "does not permit the formation of the receptor-DNA complex"}, {"measurement": "quantity easily detected in chicken samples", "setting": "tetR of class C [4]", "value": "~100", "unit": "ppb"}]}]}
